Results are given in words; binding and its absence hold for the method and conditions named. Sequences can lack the tags named with a protein.
T1: T4 gp27 with a C-terminal 11xHis-tag (gp27-C), purified (bacteriophage T4), P17172
T1 chain: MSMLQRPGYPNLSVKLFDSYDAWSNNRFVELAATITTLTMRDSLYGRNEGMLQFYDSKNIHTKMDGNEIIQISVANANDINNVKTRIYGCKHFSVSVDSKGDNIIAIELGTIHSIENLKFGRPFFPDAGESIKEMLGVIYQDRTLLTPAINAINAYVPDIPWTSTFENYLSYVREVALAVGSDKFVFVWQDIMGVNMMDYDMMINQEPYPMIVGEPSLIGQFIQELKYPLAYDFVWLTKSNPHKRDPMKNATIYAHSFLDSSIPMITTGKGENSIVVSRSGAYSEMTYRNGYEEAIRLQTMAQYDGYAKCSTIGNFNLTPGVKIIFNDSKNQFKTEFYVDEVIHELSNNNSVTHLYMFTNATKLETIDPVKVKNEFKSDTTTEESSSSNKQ

T2: T4 gp27 with an N-terminal 10xHis-tag (gp27-N), purified (bacteriophage T4), P17172
T2 chain: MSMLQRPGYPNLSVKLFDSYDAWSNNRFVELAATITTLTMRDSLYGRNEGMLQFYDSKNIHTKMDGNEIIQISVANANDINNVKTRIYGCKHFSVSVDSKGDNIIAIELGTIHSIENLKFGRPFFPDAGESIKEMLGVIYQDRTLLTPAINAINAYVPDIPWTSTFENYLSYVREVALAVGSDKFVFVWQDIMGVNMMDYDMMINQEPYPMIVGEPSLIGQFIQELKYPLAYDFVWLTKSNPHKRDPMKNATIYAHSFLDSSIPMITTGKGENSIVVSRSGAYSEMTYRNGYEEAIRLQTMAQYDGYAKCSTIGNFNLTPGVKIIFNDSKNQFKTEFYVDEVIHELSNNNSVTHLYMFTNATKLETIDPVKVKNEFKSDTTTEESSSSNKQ


Key:
[1] = molecular target: T1, T4 gp27 with a C-terminal 11xHis-tag …; assay: SEC-MALS; Superdex 200 increase 10/300 GL, 20 mM Tris-HCl pH 8, 150 mM NaCl, 0.5 mL/min; both purified; conditions: remark: other sources report otherwise
[2] = molecular target: T2, T4 gp27 with an N-terminal 10xHis-tag …; assay: as above; conditions: remark: other sources report otherwise

binding [1] | binding [2] | Binder
no binding | – | T4 gp27 with a C-terminal 11xHis-tag (gp27-C), purified, P17172 1-391 (protein) MSMLQRPGYPNLSVKLFDSYDAWSNNRFVELAATITTLTMRDSLYGRNEGMLQFYDSKNIHTKMDGNEIIQISVANANDINNVKTRIYGCKHFSVSVDSKGDNIIAIELGTIHSIENLKFGRPFFPDAGESIKEMLGVIYQDRTLLTPAINAINAYVPDIPWTSTFENYLSYVREVALAVGSDKFVFVWQDIMGVNMMDYDMMINQEPYPMIVGEPSLIGQFIQELKYPLAYDFVWLTKSNPHKRDPMKNATIYAHSFLDSSIPMITTGKGENSIVVSRSGAYSEMTYRNGYEEAIRLQTMAQYDGYAKCSTIGNFNLTPGVKIIFNDSKNQFKTEFYVDEVIHELSNNNSVTHLYMFTNATKLETIDPVKVKNEFKSDTTTEESSSSNKQ
– | no binding | T4 gp27 with an N-terminal 10xHis-tag (gp27-N), purified, P17172 1-391 (protein) MSMLQRPGYPNLSVKLFDSYDAWSNNRFVELAATITTLTMRDSLYGRNEGMLQFYDSKNIHTKMDGNEIIQISVANANDINNVKTRIYGCKHFSVSVDSKGDNIIAIELGTIHSIENLKFGRPFFPDAGESIKEMLGVIYQDRTLLTPAINAINAYVPDIPWTSTFENYLSYVREVALAVGSDKFVFVWQDIMGVNMMDYDMMINQEPYPMIVGEPSLIGQFIQELKYPLAYDFVWLTKSNPHKRDPMKNATIYAHSFLDSSIPMITTGKGENSIVVSRSGAYSEMTYRNGYEEAIRLQTMAQYDGYAKCSTIGNFNLTPGVKIIFNDSKNQFKTEFYVDEVIHELSNNNSVTHLYMFTNATKLETIDPVKVKNEFKSDTTTEESSSSNKQ

From PMC11054660
